Laboratory results from PubChem BioAssay AID220 (DTP/NCI, 2004).
The list shows only some results of the screen, not a fair sample: it gathers tests that were run many times, whatever their T/C, doses with no T/C, and many T/C values between a quarter and a half above the control. Further doses and runs are listed elsewhere. T/C is the treated group as % of the vehicle group. Schedules are NCI's codes, read here as Q, the interval in days (D) or hours (H), X, the number of doses. Some T/C values are negative: the treated tumours shrank. Some T/C values are followed by the survivors on the day toxicity was checked, most often the fifth; where none is given, no animal had died by that day. Some doses have a count of surviving animals in place of a T/C: the source files T/C as zero there, which appears to mark a toxic dose or a test without result, not a measured value. Counts of survivors are from the toxicity check (mostly the fifth day) where no day follows; animals may have died later. Some doses were run more than once; their values stand side by side, smallest first.

Test system: CD8F1 mice, subcutaneous mammary adenocarcinoma, T/C%
Assay: NCI In Vivo Anticancer Drug Screen. Data for tumor model Mammary Adenocarcinoma CD8F1 (subcutaneous) in CD8F1
Settings: higher T/C = larger tumour
Procedure, shortened: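 Transplantable tumors were established in mice, animals were dosed with compound or vehicle, and survival or tumor size was then measured in both groups. The treated result was divided by the control result.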

[1] = T/C endpoint: median tumor weight change, dose: 250.0 mg/kg/injection, schedule: Q01DX001 (ip), vehicle: saline
[2] = T/C endpoint: median tumor weight (est.), dose: 100.0 mg/kg/injection, schedule: Q07DX005 (ip), vehicle: Klucel (hydroxypropylcellulose) (HPC)

## CC[PH+](CC)CC[S-].CC[PH+](CC)CC[S-].[Au+].[Au+]
T/C endpoint: median tumor weight change, dose: 25.0 mg/kg/injection, schedule: Q01DX001 (ip), vehicle: Klucel (hydroxypropylcellulose) (HPC), evaluated on day 32
  T/C: 135 % of control
T/C endpoint: median tumor weight change, dose: 200.0 mg/kg/injection, schedule: Q01DX001 (ip), vehicle: Klucel (hydroxypropylcellulose) (HPC)
  survivor count: 0 of 10 on day 41
T/C endpoint: median tumor weight change, dose: 400.0 mg/kg/injection, schedule: Q01DX001 (ip), vehicle: Klucel (hydroxypropylcellulose) (HPC)
  survivor count: 0 of 10 on day 32 and 0 of 10 on day 41

## COC(=O)Nc1nc2ccc(C3(c4ccc(F)cc4)OCCO3)cc2[nH]1
[1]
  survivor count: 4 of 10 on day 29
T/C endpoint: median tumor weight change, dose: 500.0 mg/kg/injection, schedule: Q01DX001 (ip), vehicle: saline
  survivor count: 2 of 10 on day 29
T/C endpoint: median tumor weight change, dose: 1000.0 mg/kg/injection, schedule: Q01DX001 (ip), vehicle: saline
  survivor count: 0 of 10 on day 29
T/C endpoint: median tumor weight change, dose: 2000.0 mg/kg/injection, schedule: Q01DX001 (ip), vehicle: saline
  survivor count: 0 of 10 on day 29
T/C endpoint: median tumor weight change, dose: 2000.0 mg/kg/injection, schedule: Q01DX001 (ip), vehicle: suspension in saline
  survivor count: 0 of 10 on day 34

## COc1cc(NCCCCCCCNC(C)C)c2nccc(C)c2c1
T/C endpoint: median tumor weight change, dose: 15.62 mg/kg/injection, schedule: Q01DX001 (ip), vehicle: saline, evaluated on day 31
  T/C: 130 % of control
T/C endpoint: median tumor weight change, dose: 125.0 mg/kg/injection, schedule: Q01DX001 (ip), vehicle: saline
  survivor count: 1 of 10 on day 31
[1]
  survivor count: 0 of 10 on day 31

## CN(C)CCOc1ccc2c(c1)C/C(=C/c1ncc([N+](=O)[O-])n1C)C2=O
T/C endpoint: median tumor weight (est.), dose: 200.0 mg/kg/injection, schedule: Q07DX005 (ip), vehicle: saline with Tween-80
  survivor count: 6 of 10 on day 30
T/C endpoint: median tumor weight (est.), dose: 400.0 mg/kg/injection, schedule: Q07DX005 (ip), vehicle: saline with Tween-80
  survivor count: 0 of 10 on day 30

## Cc1c(N)nc(C(CC(N)=O)NCC(N)C(N)=O)nc1C(=O)NC(C(=O)NC(C)C(O)C(C)C(=O)NC(C(=O)NCCc1nc(-c2nc(C(=O)NCCCNCCCc3ccccn3)cs2)cs1)C(C)O)C(OC1OC(CO)C(O)C(O)C1OC1OC(CO)C(O)C(OC(N)=O)C1O)c1cnc[nH]1 (stereo unspecified)
T/C endpoint: median tumor weight (est.), dose: 3.0 mg/kg/injection, schedule: Q07DX005 (ip), vehicle: water, evaluated on day 30
  T/C: 127 % of control

## CCCCCC[Se][Se]CCCCCC
T/C endpoint: median tumor weight change, dose: 125.0 mg/kg/injection, schedule: Q01DX001 (ip), vehicle: Klucel (hydroxypropylcellulose) (HPC)
  survivor count: 5 of 10 on day 33
T/C endpoint: median tumor weight change, dose: 250.0 mg/kg/injection, schedule: Q01DX001 (ip), vehicle: Klucel (hydroxypropylcellulose) (HPC)
  survivor count: 1 of 10 on day 33

## CC[C@@]1(O)C(=O)OCc2c1cc1n(c2=O)Cc2cc3cc(O)ccc3nc2-1
T/C endpoint: median tumor weight change, dose: 3.75 mg/kg/injection, schedule: Q01DX001 (ip), vehicle: saline, evaluated on day 35
  T/C: 130 % of control

## CCC(=O)O[C@H]1CC[C@H]2[C@@H]3CCC4=CC(=O)CC[C@]4(C)[C@H]3CC[C@]12C
T/C endpoint: median tumor weight (est.), dose: 20.0 mg/kg/injection, schedule: Q07DX005 (ip), vehicle: Klucel (hydroxypropylcellulose) (HPC), evaluated on day 30
  T/C: 138 % of control
T/C endpoint: median tumor weight (est.), dose: 40.0 mg/kg/injection, schedule: Q07DX005 (ip), vehicle: Klucel (hydroxypropylcellulose) (HPC), evaluated on day 30
  T/C: 141 % of control [8 of 10 alive on day 30]
T/C endpoint: median tumor weight (est.), dose: 80.0 mg/kg/injection, schedule: Q07DX005 (ip), vehicle: Klucel (hydroxypropylcellulose) (HPC), evaluated on day 30
  T/C: 126 % of control
T/C endpoint: median tumor weight (est.), dose: 320.0 mg/kg/injection, schedule: Q07DX005 (ip), vehicle: Klucel (hydroxypropylcellulose) (HPC), evaluated on day 30
  T/C: 135 % of control [9 of 10 alive on day 30]

## CN(C)C(=O)SC1=C(c2c(Cl)cccc2Cl)C(=O)c2ccccc21
T/C endpoint: median tumor weight change, dose: 500.0 mg/kg/injection, schedule: Q01DX001 (ip), vehicle: Klucel (hydroxypropylcellulose) (HPC)
  survivor count: 6 of 10 on day 30

## N=c1c(C(=O)OCc2ccccc2)ncc(CCl)n1O
T/C endpoint: median tumor weight change, dose: 2000.0 mg/kg/injection, schedule: Q01DX001 (ip), vehicle: saline with Tween-80
  survivor count: 2 of 10 on day 25 and 2 of 10 on day 38

## CC(=O)O[C@@H]1CO[C@H]2O[C@H]3[C@@H](C(C=O)=C[C@H](O)[C@@H]4C5=C(C(C)C)CC[C@]5(C)CC[C@@]34C)[C@@]2(O)C1=O
T/C endpoint: median tumor weight change, dose: 30.0 mg/kg/injection, schedule: Q01DX001 (ip), vehicle: Klucel (hydroxypropylcellulose) (HPC)
  survivor count: 2 of 10 on day 28 and 3 of 10 on day 25
T/C endpoint: median tumor weight change, dose: 60.0 mg/kg/injection, schedule: Q01DX001 (ip), vehicle: Klucel (hydroxypropylcellulose) (HPC)
  survivor count: 0 of 10 on day 25 and 0 of 10 on day 28
T/C endpoint: median tumor weight change, dose: 120.0 mg/kg/injection, schedule: Q01DX001 (ip), vehicle: Klucel (hydroxypropylcellulose) (HPC)
  survivor count: 0 of 10 on day 25 and 0 of 10 on day 28

## CN(C)/N=N/c1nc[nH]c1C(N)=O
T/C endpoint: median tumor weight (est.), dose: 800.0 mg/kg/injection, schedule: Q07DX004 (ip), vehicle: saline
  survivor count: 5 of 10

## CNC(=O)OCc1c(COC(=O)NC)c(-c2ccc(F)cc2)n2c1CCC2
[2]
  survivor count: 5 of 10 on day 30

## NC1(C(=O)O)CCCC1
T/C endpoint: mean tumor weight, dose: 12.5 mg/kg/injection, schedule: Q07DX008 (ip), vehicle: saline, evaluated on day 51
  T/C: 135 % of control
T/C endpoint: median tumor weight (est.), dose: 12.5 mg/kg/injection, schedule: Q07DX005 (ip), vehicle: saline, evaluated on day 30
  T/C: 139 % of control

## CC(=O)OCC(=O)[C@@]12OC(C)(C)O[C@@H]1C[C@H]1[C@@H]3CC(C=O)=C4C=C(OCCCl)CC[C@]4(C)[C@@]3(F)[C@@H](O)C[C@@]12C
T/C endpoint: median tumor weight change, dose: 125.0 mg/kg/injection, schedule: Q01DX001 (ip), vehicle: Klucel (hydroxypropylcellulose) (HPC), evaluated on day 28
  T/C: 56 % of control
T/C endpoint: median tumor weight change, dose: 125.0 mg/kg/injection, schedule: Q01DX001 (ip), vehicle: Klucel (hydroxypropylcellulose) (HPC), evaluated on day 30
  T/C: 32 % of control
T/C endpoint: median tumor weight change, dose: 125.0 mg/kg/injection, schedule: Q01DX001 (ip), vehicle: Klucel (hydroxypropylcellulose) (HPC), evaluated on day 31
  T/C: 13 % of control [9 of 10 alive on day 31]
T/C endpoint: median tumor weight change, dose: 125.0 mg/kg/injection, schedule: Q01DX001 (ip), vehicle: Klucel (hydroxypropylcellulose) (HPC), evaluated on day 36
  T/C: 52 % of control
T/C endpoint: median tumor weight change, dose: 250.0 mg/kg/injection, schedule: Q01DX001 (ip), vehicle: Klucel (hydroxypropylcellulose) (HPC), evaluated on day 28
  T/C: 10 % of control
T/C endpoint: median tumor weight change, dose: 250.0 mg/kg/injection, schedule: Q01DX001 (ip), vehicle: Klucel (hydroxypropylcellulose) (HPC), evaluated on day 30
  T/C: 16 % of control
T/C endpoint: median tumor weight change, dose: 250.0 mg/kg/injection, schedule: Q01DX001 (ip), vehicle: Klucel (hydroxypropylcellulose) (HPC), evaluated on day 31
  T/C: 6 % of control
T/C endpoint: median tumor weight change, dose: 250.0 mg/kg/injection, schedule: Q01DX001 (ip), vehicle: Klucel (hydroxypropylcellulose) (HPC), evaluated on day 36
  T/C: 47 % of control
T/C endpoint: median tumor weight change, dose: 500.0 mg/kg/injection, schedule: Q01DX001 (ip), vehicle: Klucel (hydroxypropylcellulose) (HPC), evaluated on day 28
  T/C: -8 % of control
T/C endpoint: median tumor weight change, dose: 500.0 mg/kg/injection, schedule: Q01DX001 (ip), vehicle: Klucel (hydroxypropylcellulose) (HPC), evaluated on day 30
  T/C: 2 % of control
T/C endpoint: median tumor weight change, dose: 500.0 mg/kg/injection, schedule: Q01DX001 (ip), vehicle: Klucel (hydroxypropylcellulose) (HPC), evaluated on day 31
  T/C: -27 % of control [9 of 10 alive on day 31]
T/C endpoint: median tumor weight change, dose: 500.0 mg/kg/injection, schedule: Q01DX001 (ip), vehicle: Klucel (hydroxypropylcellulose) (HPC), evaluated on day 36
  T/C: 25 % of control
T/C endpoint: median tumor weight change, dose: 1000.0 mg/kg/injection, schedule: Q01DX001 (ip), vehicle: Klucel (hydroxypropylcellulose) (HPC), evaluated on day 28
  T/C: -8 % of control
T/C endpoint: median tumor weight change, dose: 1000.0 mg/kg/injection, schedule: Q01DX001 (ip), vehicle: Klucel (hydroxypropylcellulose) (HPC), evaluated on day 30
  T/C: -30 % of control
T/C endpoint: median tumor weight change, dose: 1000.0 mg/kg/injection, schedule: Q01DX001 (ip), vehicle: Klucel (hydroxypropylcellulose) (HPC), evaluated on day 31
  T/C: -10 % of control [8 of 10 alive on day 31]
T/C endpoint: median tumor weight change, dose: 1000.0 mg/kg/injection, schedule: Q01DX001 (ip), vehicle: Klucel (hydroxypropylcellulose) (HPC), evaluated on day 36
  T/C: 15 % of control

## N#CC(C#N)=C/C=C/c1cccc([N+](=O)[O-])c1
T/C endpoint: median tumor weight (est.), dose: 50.0 mg/kg/injection, schedule: Q07DX005 (ip), vehicle: Klucel (hydroxypropylcellulose) (HPC), evaluated on day 30
  T/C: 146 % of control [9 of 10 alive on day 30]
[2]
  survivor count: 5 of 10 on day 30

## CC(=O)OCC1OC(n2ncc(=O)[nH]c2=O)C(OC(C)=O)C1OC(C)=O (stereo unspecified)
T/C endpoint: median tumor weight change, dose: 2000.0 mg/kg/injection, schedule: Q01DX001 (ip), vehicle: saline, evaluated on day 36
  T/C: 136 % of control

## Clc1ccc(C(c2ccccc2Cl)C(Cl)Cl)cc1 (stereo unspecified)
T/C endpoint: median tumor weight (est.), dose: 200.0 mg/kg/injection, schedule: Q07DX005 (ip), vehicle: Klucel (hydroxypropylcellulose) (HPC), evaluated on day 30
  T/C: 147 % of control
T/C endpoint: median tumor weight (est.), dose: 400.0 mg/kg/injection, schedule: Q07DX005 (ip), vehicle: Klucel (hydroxypropylcellulose) (HPC), evaluated on day 30
  T/C: 132 % of control
